In patent publication US20240343815A1:
Results are given in words; binding and its absence hold for the method and conditions named. Binding can be weak; no strength is given.

B1: Chimeric C2C1A1A1 (antibody, human IgG4 S228P, kappa, V domains shown)
VH: EVQLVESGGGLVQPGGSLKLSCAASGFTFSTYGMSWVRQTPDKRLELVATINSNGGSTSYPDSVKGRFTISRDNAKNTLYLQMSSLKSEDTAMFYCARFFRFRNAMDYWGQGTSVTVSS
VL: DIQMTQSPASLSASVGETVTITCRTSENIYSYLAWYQQKQGKSPQFLVYNAKTLAEGVPSRFSGSGSGTQFSLNINSLQSEDFGSYYCQHYYGPPTWTFGGGTKLEIKR
B2: huC2C1A1A1-V15 (antibody, human IgG4 S228P, kappa, V domains shown)
VH: EVQLVESGGGLVQPGGSLRLSCAASGFTFSTYGMSWVRQAPGKGLVWVATINSNGGSTSYPDSVKGRFTISRDNAKNTLYLQMNSLRAEDTAVYYCARFFRFRNAMDYWGQGTLVTVSS
VL: DIQMTQSPSSLSASVGDRVTITCRTSENIYSYLAWYQQKPGKAPKFLVYNAKTLAEGVPSRFSGSGSGTDFTLTISSLQPEDFATYYCQHYYGPPTWTFGQGTKVEIKR
B3: huC2C1A1A1-V14 (antibody, human IgG4 S228P, kappa, V domains shown)
VH: EVQLVESGGGLVQPGGSLRLSCAASGFTFSTYGMSWVRQAPGKGLVWVATINSNGGSTSYPDSVKGRFTISRDNAKNTLYLQMNSLRAEDTAVYYCARFFRFRNAMDYWGQGTLVTVSS
VL: DIQMTQSPSSLSASVGQRVTITCRTSENIYSYLAWYQQKQGKPPRFLIYNAKTLAEGVPSRFSGSGSGTEFTLTITSLQAEDFGVYYCQHYYGPPTWTFGPGTKLEIKR

Target: marmoset monkey IL4Rα-his protein (marmoset monkey)
Assay: SPR Biacore, mAb captured, marmoset IL4Rα-his analyte

Binder | binding
B1 | binds
B2 | binds
B3 | binds
